Results are given in words; binding and its absence hold for the method and conditions named. Some entries that bind do so weakly or less than the wild type.
Target: Integration host factor subunit beta (IHFβ), P. aeruginosa (P. aeruginosa) (UniProt Q51473)
Test: cryo-EM structure

The chains behind the UniProt entries cited, without tags or fusion partners.
UniProt Q51473: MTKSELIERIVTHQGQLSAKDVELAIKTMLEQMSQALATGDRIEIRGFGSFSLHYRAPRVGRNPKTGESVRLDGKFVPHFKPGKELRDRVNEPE
UniProt Q51472: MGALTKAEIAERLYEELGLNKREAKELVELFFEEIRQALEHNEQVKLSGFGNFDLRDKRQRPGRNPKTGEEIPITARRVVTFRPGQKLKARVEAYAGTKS

For “Integration host factor subunit alpha (IHFα), P. aeruginosa (from UniProt Q51472 1-100)”, the binding was “binds”.

— doi:10.1101/2023.05.26.542337 (bioRxiv, 2023)
